PubChem BioAssay AID1259424, University of Nebraska Medical Center | 2018
In all, the deposit lists about 14,000 reagents; shown is a random part of them. 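Higher correlation or smaller distance means closer resemblance to KSR1 loss; control wells, including KSR1 knockdowns, recur on many plates.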 Further read-outs or replicates are left out here. Not given: the time to read-out.

Test: 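Rank knockdowns across the genome by resemblance to the KSR1 depletion profile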 (primary screen)
Cell system: human HCT116 colon cancer cells
Reagent: siRNA pool against human genes, 50 nM
Read-out: 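Six signature mRNAs by branched-DNA multiplex assay, scaled to two housekeeping genes and non-targeting median, log2; matched to mean KSR1 knockdown profile by Pearson correlation and euclidean distance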
Direction: mean correlation with KSR1 profile and KSR1 correlation: higher = expression change more like KSR1 knockdown; mean distance from KSR1 profile: higher = expression change less like KSR1 knockdown

no.	target	mean correlation with KSR1 profile	mean distance from KSR1 profile	KSR1 correlation, replicate 1	KSR1 correlation, replicate 2
1	PWP2 (GeneID 5822)	-0.323	2.96	-0.254	-0.591
2	NPC2 (GeneID 10577)	-0.337	3.31	-0.409	-0.371
3	ANKRD55 (GeneID 79722)	0.371	2	0.457	0.535
4	TACSTD2 (GeneID 4070)	-0.473	2.35	-0.364	-0.671
5	NDUFAF3 (GeneID 25915)	-0.487	4.38	-0.456	-0.654
6	MTX2 (GeneID 10651)	-0.159	3.23	-0.302	-0.0392
7	G0S2 (GeneID 50486)	0.55	1.28	0.75	0.334
8	BRMS1L (GeneID 84312)	0.287	2.2	-0.04	0.447
9	GPRC5A (GeneID 9052)	0.528	0.893	0.0395	0.441
10	SPIN1 (GeneID 10927)	0.507	3.44	0.582	0.44
11	ZFP36L2 (GeneID 678)	-0.465	3.76	-0.431	-0.542
12	CLPB (GeneID 81570)	0.756	1.88	0.534	0.549
13	CNOT6L (GeneID 246175)	-0.137	2.33	-0.0328	-0.162
14	PAK1IP1 (GeneID 55003)	-0.125	2.3	-0.196	-0.0858
15	PDCD1LG2 (GeneID 80380)	0.0909	1.71	-0.193	-0.00248
16	CDO1 (GeneID 1036)	-0.116	1.18	0.0966	-0.0231
17	PFDN5 (GeneID 5204)	-0.135	3.23	-0.19	0.246
18	RPL34 (GeneID 6164)	-0.209	1.96	-0.46	-0.259
19	GALNT4 (GeneID 8693)	0.119	2.22	0.166	0.133
20	FBXL2 (GeneID 25827)	-0.482	1.71	-0.663	-0.539
21	TNFRSF19 (GeneID 55504)	0.043	1.29	0.251	0.0663
22	IDE (GeneID 3416)	0.426	1.25	0.236	0.538
23	RPL23A (GeneID 6147)	0.398	4.12	0.387	0.365
24	ZFP36 (GeneID 7538)	-0.367	1.77	-0.0837	-0.7
25	MYL12A (GeneID 10627)	0.123	2.71	0.316	-0.162
26	OGA (GeneID 10724)	0.304	1.47	0.179	0.369
27	FLVCR1 (GeneID 28982)	-0.733	2.06	-0.906	-0.621
28	INHBE (GeneID 83729)	0.493	1.96	0.43	0.157
29	ANKRD16 (GeneID 54522)	-0.896	2.04	-0.805	-0.792
30	PNPLA8 (GeneID 50640)	-0.379	1.14	-0.13	-0.232
31	RS1 (GeneID 6247)	0.0712	1.72	0.124	0.196
32	AKR7A2 (GeneID 8574)	-0.0621	2.33	0.369	-0.292
33	SNTG1 (GeneID 54212)	-0.338	3.07	-0.497	-0.107
34	LIN7B (GeneID 64130)	-0.297	2.27	-0.298	-0.292
35	HIP1R (GeneID 9026)	0.0118	1.44	0.297	-0.203
36	GRM5 (GeneID 2915)	0.544	1.44	0.658	0.68
37	C17orf75 (GeneID 64149)	0.137	2.02	0.173	0.0263
38	CHD5 (GeneID 26038)	-0.228	3.03	-0.181	-0.128
39	ZBED4 (GeneID 9889)	0.201	1.85	0.469	0.0619
40	MYNN (GeneID 55892)	-0.564	1.28	-0.732	-0.229
41	PRMT6 (GeneID 55170)	-0.453	5.95	-0.394	-0.31
42	MTNR1A (GeneID 4543)	0.885	0.753	0.889	0.955
43	SIPA1L1 (GeneID 26037)	0.0321	1.4	0.425	-0.00689
44	ENDOU (GeneID 8909)	0.93	0.583	0.884	0.912
45	KCNE5 (GeneID 23630)	-0.607	2	-0.715	-0.72
46	HSPB1 (GeneID 3315)	-0.25	1.47	-0.329	-0.542
47	MEOX1 (GeneID 4222)	-0.646	1.77	-0.189	-0.227
48	ZNF185 (GeneID 7739)	-0.0259	4	-0.503	-0.616
49	PSMD4 (GeneID 5710)	0.579	2.68	0.378	0.566
50	VMP1 (GeneID 81671)	-0.0743	2.94	-0.209	-0.0626

An excerpt from above, limited to “KSR1 correlation, replicate 1”:
MYNN (GeneID 55892): -0.732
PRMT6 (GeneID 55170): -0.394
MTNR1A (GeneID 4543): 0.889
SIPA1L1 (GeneID 26037): 0.425
ENDOU (GeneID 8909): 0.884
KCNE5 (GeneID 23630): -0.715
